Measured values taken from the supplement of paper PMC4604168 (melanoma cell lines).
This is one part of the list. Single values are uncertain, as repeats are few or missing.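 Cells were imaged in 1,536-well plates, and nuclei stained with an antibody against cleaved PARP were counted against all DNA-stained nuclei to give the apoptosis fraction. Screening doses were chosen to leave most cells alive, and resting and induced cleaved-PARP levels differ strongly between cell lines.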

Experiments:
Experiment in all cases: cleaved PARP positive nuclei fraction relative to DMSO control; melanoma cells; higher = more apoptosis
Conditions in all cases: library dose: low library concentration; 72 h
WM115 = tested on: WM115
WM1716 = tested on: WM1716
WM1745 = tested on: WM1745
WM3526 = tested on: WM3526
WM3619 = tested on: WM3619
WM451Lu = tested on: WM451Lu

| Structure (SMILES) | cleaved PARP positive nuclei fraction (WM115) [%] | cleaved PARP positive nuclei fraction (WM1716) [%] | cleaved PARP positive nuclei fraction (WM1745) [%] | cleaved PARP positive nuclei fraction (WM3526) [%] | cleaved PARP positive nuclei fraction (WM3619) [%] | cleaved PARP positive nuclei fraction (WM451Lu) [%] |
| --- | --- | --- | --- | --- | --- | --- |
| CCCCCCCCc1ccc(CCC(N)(CO)CO)cc1 [fingolimod] + Cn1cncc1[C@@](N)(c1ccc(Cl)cc1)c1ccc2c(c1)c(-c1cccc(Cl)c1)cc(=O)n2C [tipifarnib] (first compound 2 µM, partner dose 0.01 µM) | 120 | 179 | 88.4 | 420 | 94.9 | 170 |
| CCN(CC)CCNC(=O)c1c(C)[nH]c(/C=C2\C(=O)Nc3ccc(F)cc32)c1C [sunitinib] + Nc1cccc2c1CN(C1CCC(=O)NC1=O)C2=O [lenalidomide] (first compound 0.4 µM, partner dose 1 µM) | 89.3 | 120 | 123 | 87.7 | 80.7 | 250 |
| CS(=O)(=O)c1ccc(C(=O)Nc2ccc(Cl)c(-c3ccccn3)c2)c(Cl)c1 [vismodegib] + OCc1c[nH]c2ccccc12 [Indole-3-carbinol] (first compound 1 µM, partner dose 0.8 µM) | 72.1 | 183 | 91.8 | 38.6 | 108 | 220 |
| Cn1sc(=O)n(Cc2ccccc2)c1=O + O=C1NC(=O)/C(=C/c2ccc(-c3ccc(F)cc3O)o2)S1 [AS252424] (first compound 0.4 µM, partner dose 1 µM) | 93.6 | 78.4 | 102 | 40.1 | 98.8 | 296 |
| CC1(C)CCC(c2ccc(Cl)cc2)=C(CN2CCN(c3ccc(C(=O)NS(=O)(=O)c4ccc(N[C@H](CCN5CCOCC5)CSc5ccccc5)c(S(=O)(=O)C(F)(F)F)c4)cc3)CC2)C1 + O=C(O)c1ccc(-c2c[nH]c3ncc(-c4ccccc4)cc23)cc1C1CCCC1 [GSK650394] (first compound 0.4 µM, partner dose 0.16 µM) | 246 | 213 | 845 | 113 | 125 | 225 |
| CN(c1ncccc1CNc1nc(Nc2ccc3c(c2)CC(=O)N3)ncc1C(F)(F)F)S(C)(=O)=O + O=c1cc(-c2cccc3c2Sc2ccccc2S3)oc(N2CCOCC2)c1 [KU55933] (first compound 0.08 µM, partner dose 1 µM) | 105 | 106 | 222 | 79.8 | 102 | 200 |
| C[C@@H](N)c1ccc(C(=O)Nc2ccnc3[nH]ccc23)cc1 + O=C(O)c1ccc2c(c1)nc(Nc1cccc(Cl)c1)c1ccncc12 [CX4945] (first compound 0.4 µM, partner dose 0.4 µM) | 139 | 99.8 | 109 | 45.6 | 116 | 30.7 |
| NC(=O)c1ccc(N(C(N)=O)c2c(F)cccc2F)nc1-c1ccc(F)cc1F + O=S(=O)(c1ccccc1)N(CC(F)(F)F)c1ccc(C(O)(C(F)(F)F)C(F)(F)F)cc1 [T0901317] (first compound 0.4 µM, partner dose 1.4 µM) | 29.4 | 53.7 | 112 | 90.2 | 89.1 | 46.1 |
| Cn1sc(=O)n(Cc2ccccc2)c1=O + C=CCn1c(=O)c2cnc(Nc3ccc(N4CCN(C)CC4)cc3)nc2n1-c1cccc(C(C)(C)O)n1 [MK1775] (first compound 0.4 µM, partner dose 0.02 µM) | 73.4 | 47.8 | 113 | 59.4 | 136 | 52.7 |
| NC(=O)c1ccc(N(C(N)=O)c2c(F)cccc2F)nc1-c1ccc(F)cc1F + Clc1ccc(Nc2nnc(Cc3ccncc3)c3ccccc23)cc1 [vatalanib] (first compound 0.4 µM, partner dose 2 µM) | 68.2 | 31.5 | 85.3 | 22.1 | 115 | 80 |
| C[C@]1(O)C[C@@H](c2nc(-c3ccc4ccc(-c5ccccc5)nc4c3)c3c(N)nccn32)C1 + NC(=O)Nc1cc(-c2cccc(F)c2)sc1C(=O)N[C@H]1CCCNC1 [AZD7762] (first compound 0.4 µM, partner dose 0.02 µM) | 87.6 | 62.2 | 134 | 121 | 200 | 327 |
| C[C@@H](N)c1ccc(C(=O)Nc2ccnc3[nH]ccc23)cc1 + CC(C)C[C@H](NC(=O)[C@H](Cc1ccccc1)NC(=O)c1cnccn1)B(O)O [Bortezomib] (first compound 0.4 µM, partner dose 0.001 µM) | 69.2 | 83.3 | 143 | 660 | 322 | 45.6 |
| CC(=O)O[C@@]12CO[C@@H]1C[C@H](O)[C@@]1(C)C(=O)[C@H](O)C3=C(C)[C@@H](OC(=O)[C@H](O)[C@@H](NC(=O)OC(C)(C)C)c4ccccc4)C[C@@](O)([C@@H](OC(=O)c4ccccc4)[C@H]21)C3(C)C [Docetaxel] + Cc1nc(Nc2ncc(C(=O)Nc3c(C)cccc3Cl)s2)cc(N2CCN(CCO)CC2)n1 [dasatanib] (first compound 0.0001 µM, partner dose 0.004 µM) | 436 | 213 | 228 | 176 | 137 | 94.2 |
| Cn1sc(=O)n(Cc2ccccc2)c1=O + Cc1cc(N2CCOCC2)cc2[nH]c(-c3c(NC[C@@H](O)c4cccc(Cl)c4)cc[nH]c3=O)nc12 [BMS536924] (first compound 0.4 µM, partner dose 0.2 µM) | 106 | 168 | 116 | 60.9 | 100 | 163 |
| CC(=O)O[C@@]12CO[C@@H]1C[C@H](O)[C@@]1(C)C(=O)[C@H](O)C3=C(C)[C@@H](OC(=O)[C@H](O)[C@@H](NC(=O)OC(C)(C)C)c4ccccc4)C[C@@](O)([C@@H](OC(=O)c4ccccc4)[C@H]21)C3(C)C [Docetaxel] + CCc1ccc(CCOc2ccc(CC3SC(=O)NC3=O)cc2)nc1 [pioglitazone] (first compound 0.0001 µM, partner dose 2 µM) | 514 | 1050 | 183 | 148 | 116 | 293 |
| C[C@]1(O)C[C@@H](c2nc(-c3ccc4ccc(-c5ccccc5)nc4c3)c3c(N)nccn32)C1 + c1cc(-c2cnn3cc(-c4ccc(OCCN5CCCCC5)cc4)cnc23)ccn1 [Dorsomorphin] (first compound 0.4 µM, partner dose 0.4 µM) | 110 | 123 | 111 | 165 | 112 | 521 |
| Cn1sc(=O)n(Cc2ccccc2)c1=O + O=C(O)[C@@H]1[O][Sb](=[O])([O][Sb]2(=[O])[O][C@H]([C@H](O)CO)[C@H](O)[C@H](C(=O)O)[O]2)[O][C@H]([C@H](O)CO)[C@@H]1O [stibogluconate] (first compound 0.4 µM, partner dose 2 µM) | 71.2 | 22.2 | 89.9 | 239 | 102 | 92 |
| CS(=O)(=O)c1ccc(C(=O)Nc2ccc(Cl)c(-c3ccccn3)c2)c(Cl)c1 [vismodegib] + Nc1nc(F)nc2c1ncn2[C@@H]1O[C@H](CO)[C@@H](O)[C@@H]1O [fludarabine] (first compound 1 µM, partner dose 0.2 µM) | 69.9 | 131 | 85.8 | 647 | 207 | 305 |
| CCN(CC)CCNC(=O)c1c(C)[nH]c(/C=C2\C(=O)Nc3ccc(F)cc32)c1C [sunitinib] + COc1ccc(COc2ccc(Cc3cnc(N)nc3N)cc2OC)cc1 [GW2580] (first compound 0.4 µM, partner dose 1 µM) | 84.9 | 76.6 | 144 | 39.1 | 82.5 | 110 |
| CC(=O)O[C@@]12CO[C@@H]1C[C@H](O)[C@@]1(C)C(=O)[C@H](O)C3=C(C)[C@@H](OC(=O)[C@H](O)[C@@H](NC(=O)OC(C)(C)C)c4ccccc4)C[C@@](O)([C@@H](OC(=O)c4ccccc4)[C@H]21)C3(C)C [Docetaxel] + CN(c1ncccc1CNc1nc(Nc2ccc3c(c2)CC(=O)N3)ncc1C(F)(F)F)S(C)(=O)=O [PF562271] (first compound 0.0001 µM, partner dose 0.08 µM) | 528 | 773 | 247 | 100 | 126 | 135 |
| Cn1cnc2c(F)c(Nc3ccc(Br)cc3Cl)c(C(=O)NOCCO)cc21 [selumetinib] + COc1ccc(C2=N[C@@H](c3ccc(Cl)cc3)[C@@H](c3ccc(Cl)cc3)N2C(=O)N2CCNC(=O)C2)c(OC(C)C)c1 [Nutlin-3] (first compound 0.015 µM, partner dose 0.1 µM) | 124 | 67.6 | 92.7 | 85.6 | 142 | 58.4 |
| Cn1cnc2c(F)c(Nc3ccc(Br)cc3Cl)c(C(=O)NOCCO)cc21 [selumetinib] + CCN(CC)CCCCNc1ncc2cc(-c3cc(OC)cc(OC)c3)c(NC(=O)NC(C)(C)C)nc2n1 [PD173074] (first compound 0.015 µM, partner dose 0.1 µM) | 164 | 158 | 92.7 | 95.9 | 101 | 69.4 |
| NC1(c2ccc(-c3nc4ccn5c(=O)[nH]nc5c4cc3-c3ccccc3)cc2)CCC1 + COc1ccc(COc2ccc(Cc3cnc(N)nc3N)cc2OC)cc1 [GW2580] (first compound 0.4 µM, partner dose 1 µM) | 300 | 54.6 | 212 | 130 | 121 | 51.1 |
| C[C@@H](N)c1ccc(C(=O)Nc2ccnc3[nH]ccc23)cc1 + O=C(O)[C@@H]1[O][Sb](=[O])([O][Sb]2(=[O])[O][C@H]([C@H](O)CO)[C@H](O)[C@H](C(=O)O)[O]2)[O][C@H]([C@H](O)CO)[C@@H]1O [stibogluconate] (first compound 0.4 µM, partner dose 2 µM) | 187 | 349 | 123 | 74.9 | 68.8 | 41.3 |
| CS(=O)(=O)c1ccc(C(=O)Nc2ccc(Cl)c(-c3ccccn3)c2)c(Cl)c1 [vismodegib] + Cn1cncc1[C@@](N)(c1ccc(Cl)cc1)c1ccc2c(c1)c(-c1cccc(Cl)c1)cc(=O)n2C [tipifarnib] (first compound 1 µM, partner dose 0.01 µM) | 109 | 82.6 | 98.7 | 132 | 109 | 82.8 |
| C[C@]1(O)C[C@@H](c2nc(-c3ccc4ccc(-c5ccccc5)nc4c3)c3c(N)nccn32)C1 + CO[C@H]1C[C@@H]2CC[C@@H](C)[C@@](O)(O2)C(=O)C(=O)N2CCCC[C@H]2C(=O)O[C@H]([C@H](C)C[C@@H]2CC[C@@H](OCCO)[C@H](OC)C2)CC(=O)[C@H](C)/C=C(\C)[C@@H](O)[C@@H](OC)C(=O)[C@H](C)C[C@H](C)/C=C/C=C/C=C/1C [everolimus] (first compound 0.4 µM, partner dose 0.02 µM) | 107 | 87.5 | 137 | 278 | 190 | 120 |

Some of the entries above, set out differently.
C[C@@H](N)c1ccc(C(=O)Nc2ccnc3[nH]ccc23)cc1 + O=C(O)[C@@H]1[O][Sb](=[O])([O][Sb]2(=[O])[O][C@H]([C@H](O)CO)[C@H](O)[C@H](C(=O)O)[O]2)[O][C@H]([C@H](O)CO)[C@@H]1O [stibogluconate] (first compound 0.4 µM, partner dose 2 µM)
  cleaved PARP positive nuclei fraction (WM115) [%]: 187; cleaved PARP positive nuclei fraction (WM1716) [%]: 349; cleaved PARP positive nuclei fraction (WM1745) [%]: 123; cleaved PARP positive nuclei fraction (WM3526) [%]: 74.9; cleaved PARP positive nuclei fraction (WM3619) [%]: 68.8; cleaved PARP positive nuclei fraction (WM451Lu) [%]: 41.3
CS(=O)(=O)c1ccc(C(=O)Nc2ccc(Cl)c(-c3ccccn3)c2)c(Cl)c1 [vismodegib] + Cn1cncc1[C@@](N)(c1ccc(Cl)cc1)c1ccc2c(c1)c(-c1cccc(Cl)c1)cc(=O)n2C [tipifarnib] (first compound 1 µM, partner dose 0.01 µM)
  cleaved PARP positive nuclei fraction (WM115) [%]: 109; cleaved PARP positive nuclei fraction (WM1716) [%]: 82.6; cleaved PARP positive nuclei fraction (WM1745) [%]: 98.7; cleaved PARP positive nuclei fraction (WM3526) [%]: 132; cleaved PARP positive nuclei fraction (WM3619) [%]: 109; cleaved PARP positive nuclei fraction (WM451Lu) [%]: 82.8
